Experimental data: publication PMC6993207
Construct, isoform or probe ends are uncertain for at least one entry.

Tested on: FOXE1
Experiment: EMSA
Conditions: self-competition with 100-fold excess unlabeled Oligo R tested (lane 3); 40 mM Hepes pH 7.9, 75 mM KCl, 0.2 mM EDTA, 0.5 mM DTT, 150 ng/uL poly(dI-dC), 5% Ficoll, room temperature, 30 min; 5% PAGE in 0.5x TBE; protein translated in vitro; label: 32P (T4 PNK)

Sequence: ATTCAAATAAACACTTGCATTTTA (double strand) [Oligo FOXE1 (ZEB1 promoter probe, Oligo R)]
- binding result: binds
